Our source for the binding values is article PMC5562708.

Sequences of proteins named here, by UniProt entry; tags and fusion partners are left off. Residues count along the entry.
UniProt Q13873, residues 27-1038: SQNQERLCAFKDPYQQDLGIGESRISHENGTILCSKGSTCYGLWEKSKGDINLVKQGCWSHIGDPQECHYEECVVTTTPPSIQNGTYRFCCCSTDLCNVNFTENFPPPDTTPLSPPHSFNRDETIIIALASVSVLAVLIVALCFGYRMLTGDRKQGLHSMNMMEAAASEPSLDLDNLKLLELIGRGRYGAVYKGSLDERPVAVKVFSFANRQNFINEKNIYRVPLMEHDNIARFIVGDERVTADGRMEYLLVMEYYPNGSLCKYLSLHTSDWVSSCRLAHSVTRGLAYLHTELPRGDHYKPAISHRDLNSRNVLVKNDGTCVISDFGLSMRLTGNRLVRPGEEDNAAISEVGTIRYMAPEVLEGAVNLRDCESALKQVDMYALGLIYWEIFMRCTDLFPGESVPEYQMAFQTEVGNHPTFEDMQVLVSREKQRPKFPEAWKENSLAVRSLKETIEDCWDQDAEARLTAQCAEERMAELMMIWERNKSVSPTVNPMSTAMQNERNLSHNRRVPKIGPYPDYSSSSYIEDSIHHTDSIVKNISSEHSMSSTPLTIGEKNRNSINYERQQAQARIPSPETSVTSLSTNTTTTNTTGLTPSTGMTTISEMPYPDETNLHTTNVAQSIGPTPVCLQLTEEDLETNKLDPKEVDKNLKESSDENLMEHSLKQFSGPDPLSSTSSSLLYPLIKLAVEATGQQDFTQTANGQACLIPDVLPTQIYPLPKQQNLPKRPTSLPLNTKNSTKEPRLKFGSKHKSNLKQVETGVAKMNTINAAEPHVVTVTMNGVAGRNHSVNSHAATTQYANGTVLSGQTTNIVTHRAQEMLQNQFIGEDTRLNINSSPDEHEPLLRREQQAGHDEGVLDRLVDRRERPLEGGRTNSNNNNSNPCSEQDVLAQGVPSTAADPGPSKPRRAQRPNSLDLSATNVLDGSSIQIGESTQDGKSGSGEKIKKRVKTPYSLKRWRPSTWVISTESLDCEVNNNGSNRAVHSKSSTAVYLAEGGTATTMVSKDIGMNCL

No constants are given. Whether binding was seen depends on the method and setting. Binding seen in cells or lysates may run through a third protein. Some entries that bind do so weakly or less than the wild type. Tags and fused reporters may be left off the sequences shown.

For assay [1], the target named is T1, IRS4 E1189 truncation (myc-tagged) (mouse) (UniProt Q9Z0Y7).
T1 sequence: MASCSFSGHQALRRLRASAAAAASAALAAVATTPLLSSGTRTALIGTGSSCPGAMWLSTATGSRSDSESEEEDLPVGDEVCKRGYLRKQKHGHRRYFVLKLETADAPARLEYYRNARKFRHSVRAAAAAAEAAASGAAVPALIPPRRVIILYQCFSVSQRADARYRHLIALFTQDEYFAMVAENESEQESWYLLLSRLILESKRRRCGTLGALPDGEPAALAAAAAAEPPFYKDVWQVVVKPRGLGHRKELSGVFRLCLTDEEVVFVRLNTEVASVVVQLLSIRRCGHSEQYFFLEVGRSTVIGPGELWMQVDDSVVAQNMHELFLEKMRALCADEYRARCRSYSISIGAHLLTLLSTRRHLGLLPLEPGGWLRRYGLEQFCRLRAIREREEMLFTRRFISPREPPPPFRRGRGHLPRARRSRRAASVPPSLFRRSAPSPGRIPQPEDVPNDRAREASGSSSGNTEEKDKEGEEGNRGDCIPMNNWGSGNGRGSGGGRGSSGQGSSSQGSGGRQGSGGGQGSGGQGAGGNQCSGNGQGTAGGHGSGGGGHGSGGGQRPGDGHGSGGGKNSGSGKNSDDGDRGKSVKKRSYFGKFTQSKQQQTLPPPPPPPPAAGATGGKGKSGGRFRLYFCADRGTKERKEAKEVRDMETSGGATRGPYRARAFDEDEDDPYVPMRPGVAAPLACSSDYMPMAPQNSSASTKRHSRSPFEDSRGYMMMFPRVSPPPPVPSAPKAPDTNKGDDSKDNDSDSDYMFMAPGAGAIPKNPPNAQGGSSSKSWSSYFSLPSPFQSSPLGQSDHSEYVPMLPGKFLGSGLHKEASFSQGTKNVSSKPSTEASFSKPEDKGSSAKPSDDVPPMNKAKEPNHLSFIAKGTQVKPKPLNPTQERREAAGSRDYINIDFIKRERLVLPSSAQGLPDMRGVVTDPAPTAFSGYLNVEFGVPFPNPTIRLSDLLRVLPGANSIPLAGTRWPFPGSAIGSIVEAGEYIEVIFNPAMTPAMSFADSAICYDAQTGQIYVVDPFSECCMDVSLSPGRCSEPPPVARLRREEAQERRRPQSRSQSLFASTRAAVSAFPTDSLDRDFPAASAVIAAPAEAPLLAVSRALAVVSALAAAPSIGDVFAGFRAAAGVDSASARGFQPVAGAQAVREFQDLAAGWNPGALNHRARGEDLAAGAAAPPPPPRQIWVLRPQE
Description: co-IP; transfected HEK293T cells, lysed directly or starved 6 h and stimulated with 10 nM BMP2; RIPA or TNE buffer; IP with anti-myc (9E10) or anti-IRS4 antibody overnight, protein A sepharose; Western blot.

Assay [2] has as its target T2, myc-tagged IRS4 (IRS4-myc), wild type (mouse) (UniProt Q9Z0Y7).
T2 sequence: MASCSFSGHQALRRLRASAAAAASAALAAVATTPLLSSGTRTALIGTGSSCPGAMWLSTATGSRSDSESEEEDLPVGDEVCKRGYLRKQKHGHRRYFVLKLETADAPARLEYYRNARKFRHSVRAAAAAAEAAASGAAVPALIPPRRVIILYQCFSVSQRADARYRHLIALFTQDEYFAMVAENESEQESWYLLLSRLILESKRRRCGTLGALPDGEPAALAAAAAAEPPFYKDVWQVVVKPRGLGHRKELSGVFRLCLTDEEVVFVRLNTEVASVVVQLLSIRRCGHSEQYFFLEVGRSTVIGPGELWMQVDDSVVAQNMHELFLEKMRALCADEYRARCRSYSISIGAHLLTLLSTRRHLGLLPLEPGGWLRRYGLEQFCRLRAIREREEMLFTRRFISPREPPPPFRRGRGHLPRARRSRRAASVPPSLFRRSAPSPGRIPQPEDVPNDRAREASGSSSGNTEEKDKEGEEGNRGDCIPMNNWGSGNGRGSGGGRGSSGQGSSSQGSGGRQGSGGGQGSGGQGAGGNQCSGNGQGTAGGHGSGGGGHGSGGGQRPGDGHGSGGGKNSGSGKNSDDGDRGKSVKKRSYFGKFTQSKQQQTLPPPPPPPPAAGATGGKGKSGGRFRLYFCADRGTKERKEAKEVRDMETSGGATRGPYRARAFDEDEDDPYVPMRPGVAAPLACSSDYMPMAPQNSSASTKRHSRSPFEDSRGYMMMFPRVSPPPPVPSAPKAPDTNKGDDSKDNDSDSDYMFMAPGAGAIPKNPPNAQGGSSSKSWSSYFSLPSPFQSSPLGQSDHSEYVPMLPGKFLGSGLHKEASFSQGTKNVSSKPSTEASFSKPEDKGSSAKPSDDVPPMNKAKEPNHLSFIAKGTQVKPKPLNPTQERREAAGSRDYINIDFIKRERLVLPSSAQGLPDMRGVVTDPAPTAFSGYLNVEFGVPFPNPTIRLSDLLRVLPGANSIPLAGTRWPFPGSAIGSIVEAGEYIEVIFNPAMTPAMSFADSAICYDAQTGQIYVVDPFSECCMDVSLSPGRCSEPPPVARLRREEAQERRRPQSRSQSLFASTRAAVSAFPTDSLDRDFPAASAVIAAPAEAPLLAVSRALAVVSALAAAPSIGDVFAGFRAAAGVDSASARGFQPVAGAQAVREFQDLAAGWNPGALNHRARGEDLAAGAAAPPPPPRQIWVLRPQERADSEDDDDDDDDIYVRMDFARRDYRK
The description is as above.

On to “HA-tagged BMPRII long form (HA-BMPRII-LF) (from UniProt Q13873 27-1038) (receptor)”, for which the binding result in assay [1] and in assay [2] was “binds” throughout.
